Results: article PMC8330795 (Drug Delivery, 2021)

Assay: peptide made by a vendor (Fmoc solid-phase peptide synthesis)
Details: whole synthesis, reversed-phase analytical HPLC

## FITC-(Acp)-KKKKKRFSFKKSFKLSGFSFKKNKK
  purity (crude or final not stated): >96%
